Source: patent US20100285005A1 (Eli Lilly, published 2010)
Residue numbers refer to the chain shown, from its start. Results are given in words; binding and its absence hold for the method and conditions named. Some entries that bind do so weakly or less than the wild type.

Chains of the proteins cited; added tags and fusions are not shown.
UniProt P61073: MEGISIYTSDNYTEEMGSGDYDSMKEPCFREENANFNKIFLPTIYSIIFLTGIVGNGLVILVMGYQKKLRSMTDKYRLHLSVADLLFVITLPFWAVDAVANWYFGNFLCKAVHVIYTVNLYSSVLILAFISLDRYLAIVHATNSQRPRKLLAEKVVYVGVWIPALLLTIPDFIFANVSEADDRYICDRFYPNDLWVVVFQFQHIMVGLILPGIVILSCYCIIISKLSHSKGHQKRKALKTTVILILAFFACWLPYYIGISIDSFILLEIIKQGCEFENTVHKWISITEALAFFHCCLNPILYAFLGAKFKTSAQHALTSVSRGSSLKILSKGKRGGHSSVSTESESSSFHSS

B1: Antibody I (antibody, human IgG4 S228P, kappa, F234A L235A, V domains shown)
VH: EVQLVESGGGLVQPGGSLRLSCAASGFTSTDYYFSWVRQAPGKGLEWVGFIRTKSKGYTTEYSGSVKGRFTISRDDSKNSLYLQMNSLKTEDTAVYYCAREPITTDPRDYWGQGTLVTVSS
VL: DIVMTQSPDSLAVSLGERATINCKSSQSLFNSRTRKKYLAWYQQKPGQPPKLLIYWASKRKSGVPDRFSGSGSGTDFTLTISSLQAEDVAVYYCKQSRFLRAFGQGTKLEIKR
B2: Antibody II (antibody, human IgG4 S228P, kappa, F234A L235A, V domains shown)
VH: B1 VH with T53S
VL: B1 VL
B3: Antibody IV (antibody, human IgG4 S228P, kappa, F234A L235A, V domains shown)
VH: B1 VH with T53N, S55R
VL: B1 VL
B4: Antibody V (antibody, human IgG4 S228P, kappa, F234A L235A, V domains shown)
VH: B1 VH with T53H
VL: B1 VL

Biological target: human CXCR4, endogenous on human cells (CCRF-CEM leukemia cells; U937 histiocytic lymphoma cells) (human) (UniProt P61073)
Assay: chemotaxis assay with U937 cells expressing endogenous CXCR4

Row | Binder | binding
1 | B1 | binds
2 | B2 | binds
3 | B3 | binds
4 | B4 | binds

Biological target: human CXCR4, endogenous on human cells (CCRF-CEM leukemia cells; U937 histiocytic lymphoma cells) (human) (UniProt P61073)
Assay: inhibition of 125I-SDF-1α binding to CCRF-CEM cells (SPA)

Row | Binder | binding
5 | B1 | binds
6 | B2 | binds
7 | B3 | binds
8 | B4 | binds
